# PubChem BioAssay AID1259405 – NCATS – 2018
# Assay: 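Mouse-designed siRNAs used to find CHO productivity engineering targets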 (primary screen)
# Cells: Chinese hamster CHO-K1 ovary cells with stable secreted eGFP expression
# Reagents: single siRNA against mouse genes, 0.8 pmol siRNA per well (2 µl of 400 nM stock)
# Duration: 3 days
# Measurement: 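Percent of the per-plate non-targeting control median for intracellular GFP per well by laser scanning cytometry and for cell viability by ATP luminescence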
# Scale: GFP, % of control: higher = more GFP per well, higher productivity; viability (ATP), % of control: higher = more viable cells (more ATP)
# Call rule: 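Called active when intracellular GFP, relative to negative control, is at or above 120%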
# This is one part, drawn at random, of about 50,000 reagents tested. Over the whole deposit, about 4,000 (8%) got an active call. 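Mouse siRNA library applied to hamster cells; one well for each siRNA.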 Entries without a mark were called inactive.
target gene,PubChem SID,"GFP, % of control","viability (ATP), % of control"
Or51m1 (GeneID 258961),SID363554433,85.1,78.5
Or51m1 (GeneID 258961),SID363567880,65.4,68.1
Or51m1 (GeneID 258961),SID363585237,73.2,73.3
Rsl1d1 (GeneID 66409),SID363554000,133 (active),68.5
Rsl1d1 (GeneID 66409),SID363561957,97.5,63.7
Rsl1d1 (GeneID 66409),SID363565695,56.7,68.2
Ano4 (GeneID 320091),SID363556323,46.1,49.1
Ano4 (GeneID 320091),SID363586773,47.3,58.1
Ano4 (GeneID 320091),SID363588881,116,81.4
Tmem107 (GeneID 66910),SID363540700,80.9,68.5
Tmem107 (GeneID 66910),SID363543151,209 (active),69
Tmem107 (GeneID 66910),SID363552644,85.4,80.3
Tmem107 (GeneID 66910),SID363589796,57.4,80.9
Tmem107 (GeneID 66910),SID363589797,70.2,100
Tmem107 (GeneID 66910),SID363589815,84.9,114
Slc35f5 (GeneID 74150),SID363555063,75.1,84.5
Slc35f5 (GeneID 74150),SID363568510,106,80.9
Slc35f5 (GeneID 74150),SID363586569,95,78.8
Ttf1 (GeneID 22130),SID363569157,65.1,81.4
Ttf1 (GeneID 22130),SID363583589,88.1,96.7
Dnajb9 (GeneID 27362),SID363572506,56.4,69
Dnajb9 (GeneID 27362),SID363577786,62.9,79.2
Dnajb9 (GeneID 27362),SID363582010,50,68.3
Capza1 (GeneID 12340),SID363540893,163 (active),75.6
Capza1 (GeneID 12340),SID363555520,61.7,66.8
Capza1 (GeneID 12340),SID363565809,57.1,82.9
Dpys (GeneID 64705),SID363569958,132 (active),122
Dpys (GeneID 64705),SID363576998,84.3,61.2
Dpys (GeneID 64705),SID363578406,70,90.6
Nrip3 (GeneID 78593),SID363547467,94.9,96.4
Nrip3 (GeneID 78593),SID363558236,66.9,79.3
Nrip3 (GeneID 78593),SID363559994,88.9,96.9
Lamp2 (GeneID 16784),SID363540449,64.5,82.5
Lamp2 (GeneID 16784),SID363542201,65.1,65.8
Lamp2 (GeneID 16784),SID363567117,132 (active),98.5
Asgr2 (GeneID 11890),SID363575058,100,64.9
Asgr2 (GeneID 11890),SID363580690,34,34.1
Asgr2 (GeneID 11890),SID363582802,112,94
Ercc5 (GeneID 22592),SID363569709,99.1,88.8
Ercc5 (GeneID 22592),SID363576749,108,86
Ercc5 (GeneID 22592),SID363578157,126 (active),124
Pip (GeneID 18716),SID363554653,61.1,45.3
Pip (GeneID 18716),SID363568100,55.2,85.3
Pip (GeneID 18716),SID363586159,106,95.2
Mgat2 (GeneID 217664),SID363545176,85.5,54
Mgat2 (GeneID 217664),SID363548689,71.3,79.7
Mgat2 (GeneID 217664),SID363562495,45.8,55.3
Ifi205 (GeneID 226695),SID363573726,92.3,80.9
Ifi205 (GeneID 226695),SID363581470,94.1,67.6
Ifi205 (GeneID 226695),SID363583934,88.3,109
Adra2a (GeneID 11551),SID363571402,73.7,74.7
Adra2a (GeneID 11551),SID363571754,79.2,95.4
Adra2a (GeneID 11551),SID363572106,76.7,71.3
Sf1 (GeneID 22668),SID363547227,88.1,117
Sf1 (GeneID 22668),SID363557996,71.7,62
Sf1 (GeneID 22668),SID363559754,78.2,77.6
Gm10643 (GeneID 100038416),SID363550204,88,98.4
Gm10643 (GeneID 100038416),SID363564713,99.3,97.2
Gm10643 (GeneID 100038416),SID363588258,87.6,79.4
Kirrel3 (GeneID 67703),SID363541588,67.7,94.9
Kirrel3 (GeneID 67703),SID363553180,90,60.7
Kirrel3 (GeneID 67703),SID363566504,112,66.4
Slc36a2 (GeneID 246049),SID363555046,141 (active),102
Slc36a2 (GeneID 246049),SID363568493,44.4,46.6
Slc36a2 (GeneID 246049),SID363586552,100,97.1
Gnpnat1 (GeneID 54342),SID363570443,122 (active),92.5
Gnpnat1 (GeneID 54342),SID363579243,125 (active),157
Gnpnat1 (GeneID 54342),SID363583115,95.3,85
Fyttd1 (GeneID 69823),SID363542538,47.5,54.7
Fyttd1 (GeneID 69823),SID363552029,110,96.8
Fyttd1 (GeneID 69823),SID363559634,109,100
Arrdc4 (GeneID 66412),SID363546600,66,66.3
Arrdc4 (GeneID 66412),SID363548356,72.4,92
Arrdc4 (GeneID 66412),SID363560534,65,66.7
Decr2 (GeneID 26378),SID363575271,77.4,93.9
Decr2 (GeneID 26378),SID363580903,76.7,85.7
Decr2 (GeneID 26378),SID363583015,83.3,68.3
Platr28 (GeneID 434225),SID363540389,85.8,54.1
Platr28 (GeneID 434225),SID363542141,79.2,66.9
Platr28 (GeneID 434225),SID363567057,69.5,91.3
1700012B09Rik (GeneID 69325),SID363540585,65.7,73.4
1700012B09Rik (GeneID 69325),SID363543036,87.7,77.4
1700012B09Rik (GeneID 69325),SID363552529,109,92.5
Ldlrap1 (GeneID 100017),SID363542910,101,66.1
Ldlrap1 (GeneID 100017),SID363546427,79.4,85.5
Ldlrap1 (GeneID 100017),SID363548183,95.9,82.8
Or55b3 (GeneID 257947),SID363545060,38.7,54.3
Or55b3 (GeneID 257947),SID363551388,75.3,99.2
Or55b3 (GeneID 257947),SID363557937,54.8,78.2
Gcm1 (GeneID 14531),SID363573249,73.8,88.1
Gcm1 (GeneID 14531),SID363588488,39.9,43
Sgf29 (GeneID 75565),SID363543513,92.8,108
Sgf29 (GeneID 75565),SID363553006,101,76.7
Sgf29 (GeneID 75565),SID363558854,51.8,72.1
Trpc6 (GeneID 22068),SID363574762,75,69.2
Trpc6 (GeneID 22068),SID363575818,44.2,41.5
Trpc6 (GeneID 22068),SID363580394,68,67.2
Lrrc75a (GeneID 192976),SID363546993,68.5,53.1
Lrrc75a (GeneID 192976),SID363549805,86.1,94.9
Lrrc75a (GeneID 192976),SID363587859,142 (active),154
2510039O18Rik (GeneID 77034),SID363543855,87.1,66.2
2510039O18Rik (GeneID 77034),SID363551591,120 (active),112
2510039O18Rik (GeneID 77034),SID363559196,77.9,60
9630041A04Rik (GeneID 442798),SID363542749,120 (active),69.4
9630041A04Rik (GeneID 442798),SID363546266,103,78
9630041A04Rik (GeneID 442798),SID363548022,94.6,82.7
Eloa (GeneID 27224),SID363556358,104,125
Eloa (GeneID 27224),SID363586808,83.8,112
Eloa (GeneID 27224),SID363588916,136 (active),73.1

Look-ups from above.
Under “GFP, % of control”, Dnajb9 (GeneID 27362) [SID363582010] reads 50
Gnpnat1 (GeneID 54342) [SID363579243], GFP, % of control: 125 (active)
Result of Nrip3 (GeneID 78593) [SID363559994] in “GFP, % of control”: 88.9
Entry of Asgr2 (GeneID 11890) [SID363580690] in “viability (ATP), % of control”: 34.1
For “GFP, % of control”, Eloa (GeneID 27224) [SID363556358] has 104
Dnajb9 (GeneID 27362) [SID363577786], GFP, % of control: 62.9
